We go through one substance from paper PMC4816932.

Protein sequences, listed by entry. Tags and fused reporters are not part of them.
UniProt D3ZHA0: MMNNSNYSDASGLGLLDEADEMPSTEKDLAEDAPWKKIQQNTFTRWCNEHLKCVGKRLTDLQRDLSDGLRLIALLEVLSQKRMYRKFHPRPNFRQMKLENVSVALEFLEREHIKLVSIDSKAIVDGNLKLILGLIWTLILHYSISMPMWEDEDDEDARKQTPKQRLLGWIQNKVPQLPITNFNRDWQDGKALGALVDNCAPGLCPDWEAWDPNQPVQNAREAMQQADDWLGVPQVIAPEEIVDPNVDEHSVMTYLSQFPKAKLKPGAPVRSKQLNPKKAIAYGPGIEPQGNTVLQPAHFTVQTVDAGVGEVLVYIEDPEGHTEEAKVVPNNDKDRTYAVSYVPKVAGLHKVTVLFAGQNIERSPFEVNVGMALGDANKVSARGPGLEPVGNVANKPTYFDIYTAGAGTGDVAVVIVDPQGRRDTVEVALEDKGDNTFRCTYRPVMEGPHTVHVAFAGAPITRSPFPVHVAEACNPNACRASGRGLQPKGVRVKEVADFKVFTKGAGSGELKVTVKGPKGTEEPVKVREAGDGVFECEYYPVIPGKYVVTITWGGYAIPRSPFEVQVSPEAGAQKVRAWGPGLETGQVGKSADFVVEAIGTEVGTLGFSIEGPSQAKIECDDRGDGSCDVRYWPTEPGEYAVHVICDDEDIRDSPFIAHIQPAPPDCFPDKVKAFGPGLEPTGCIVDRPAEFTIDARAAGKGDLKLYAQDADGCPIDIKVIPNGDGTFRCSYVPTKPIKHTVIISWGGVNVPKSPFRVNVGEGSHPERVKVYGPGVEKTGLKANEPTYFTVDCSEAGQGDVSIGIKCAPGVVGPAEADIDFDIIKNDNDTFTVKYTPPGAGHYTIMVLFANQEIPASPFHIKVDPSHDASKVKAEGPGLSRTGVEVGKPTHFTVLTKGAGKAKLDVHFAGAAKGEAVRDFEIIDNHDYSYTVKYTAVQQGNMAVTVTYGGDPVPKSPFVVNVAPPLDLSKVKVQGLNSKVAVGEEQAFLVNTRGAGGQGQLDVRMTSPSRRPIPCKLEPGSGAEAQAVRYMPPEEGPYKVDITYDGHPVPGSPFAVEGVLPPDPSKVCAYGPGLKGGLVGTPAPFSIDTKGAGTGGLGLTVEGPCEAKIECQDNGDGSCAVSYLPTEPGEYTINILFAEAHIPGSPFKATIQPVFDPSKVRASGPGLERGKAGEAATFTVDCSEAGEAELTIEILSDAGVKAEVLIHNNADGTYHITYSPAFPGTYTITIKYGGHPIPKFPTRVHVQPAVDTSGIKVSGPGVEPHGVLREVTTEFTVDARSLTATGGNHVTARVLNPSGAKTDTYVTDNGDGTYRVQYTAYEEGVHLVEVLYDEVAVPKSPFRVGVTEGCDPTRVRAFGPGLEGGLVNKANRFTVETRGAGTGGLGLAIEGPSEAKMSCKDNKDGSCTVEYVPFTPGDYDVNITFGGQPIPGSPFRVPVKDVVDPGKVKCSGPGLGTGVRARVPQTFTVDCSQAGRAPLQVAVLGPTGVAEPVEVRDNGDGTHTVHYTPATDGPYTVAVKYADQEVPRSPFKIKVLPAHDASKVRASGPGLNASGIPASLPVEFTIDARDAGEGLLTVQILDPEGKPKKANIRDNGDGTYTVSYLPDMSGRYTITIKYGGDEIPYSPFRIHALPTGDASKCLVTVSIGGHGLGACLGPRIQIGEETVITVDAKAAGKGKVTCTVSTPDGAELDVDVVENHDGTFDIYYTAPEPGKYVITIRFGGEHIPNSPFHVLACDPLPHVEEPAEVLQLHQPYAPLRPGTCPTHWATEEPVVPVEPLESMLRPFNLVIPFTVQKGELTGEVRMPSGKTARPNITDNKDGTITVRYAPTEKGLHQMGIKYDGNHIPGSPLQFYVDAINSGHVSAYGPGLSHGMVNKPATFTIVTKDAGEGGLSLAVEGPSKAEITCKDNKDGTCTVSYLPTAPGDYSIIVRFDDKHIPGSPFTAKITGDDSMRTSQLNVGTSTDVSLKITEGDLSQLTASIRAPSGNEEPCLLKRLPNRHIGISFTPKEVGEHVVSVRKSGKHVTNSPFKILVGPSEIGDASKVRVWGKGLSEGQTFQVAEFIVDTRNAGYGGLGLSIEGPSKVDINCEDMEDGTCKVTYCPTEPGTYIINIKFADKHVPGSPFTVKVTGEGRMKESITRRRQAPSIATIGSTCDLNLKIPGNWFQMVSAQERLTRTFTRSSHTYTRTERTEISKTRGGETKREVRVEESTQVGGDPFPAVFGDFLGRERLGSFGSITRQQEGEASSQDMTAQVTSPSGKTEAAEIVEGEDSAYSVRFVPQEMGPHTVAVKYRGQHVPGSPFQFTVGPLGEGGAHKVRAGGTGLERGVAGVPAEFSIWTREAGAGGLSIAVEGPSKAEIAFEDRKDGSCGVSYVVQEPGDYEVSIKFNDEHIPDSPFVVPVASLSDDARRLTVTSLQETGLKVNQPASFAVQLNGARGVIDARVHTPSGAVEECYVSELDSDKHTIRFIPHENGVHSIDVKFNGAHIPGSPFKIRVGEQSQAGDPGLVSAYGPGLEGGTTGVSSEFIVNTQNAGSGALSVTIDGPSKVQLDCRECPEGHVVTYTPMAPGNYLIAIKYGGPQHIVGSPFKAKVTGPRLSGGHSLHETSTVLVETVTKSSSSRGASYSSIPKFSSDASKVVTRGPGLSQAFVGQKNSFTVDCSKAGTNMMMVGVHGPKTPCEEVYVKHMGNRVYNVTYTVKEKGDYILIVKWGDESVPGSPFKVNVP

No constants are given. Whether binding was seen depends on the method and setting. Binding seen in cells or lysates may run through a third protein. Some binding calls cover weakened binding; strength is not graded here. Where a sequence is shown, tags or fusion partners need not be part of it.

In experiment [1] the target is T1, KCNE2 (potassium voltage-gated ion-channel subfamily E member 2), endogenous in differentiated H9C2 cardiomyocytes (rat (endogenous in H9C2)) (UniProt P63161).
T1 sequence: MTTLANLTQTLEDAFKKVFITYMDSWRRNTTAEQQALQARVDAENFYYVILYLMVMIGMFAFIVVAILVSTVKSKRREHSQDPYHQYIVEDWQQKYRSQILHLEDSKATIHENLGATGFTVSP
The experiment can be described thus: co-IP; reciprocal co-IP of endogenous proteins from lysates of differentiated H9C2 cardiomyocytes after hypoxia (Esumi buffer pH 6.2, 1% O2, 37°C, 2 h); anti-KCNE2 or anti-FLNC, protein G agarose, Western blot. In general terms: A western blot detects proteins with antibodies after separation by electrophoresis.

For experiment [2], the target named is T1, KCNE2 (potassium voltage-gated ion-channel subfamily E member 2), endogenous in differentiated H9C2 cardiomyocytes (rat (endogenous in H9C2)). The experiment can be described thus: condition: only normoxic conditions (cells without hypoxic stress); co-IP; reciprocal co-IP of endogenous proteins from lysates of differentiated H9C2 cardiomyocytes under normoxic conditions; anti-KCNE2 or anti-FLNC, protein G agarose, Western blot.

On to “Filamin C (FLNC), endogenous in differentiated H9C2 cardiomyocytes (from UniProt D3ZHA0 1-2726)”, for which the values for the binding result in experiment [1] and in experiment [2] were “binds” and “no binding”, respectively.
